The list does not hold the whole screen: it gathers tests that were run many times, whatever their T/C, doses with no T/C, and many T/C values between a quarter and a half above the control. Other doses and runs of a compound stand elsewhere. T/C is the treated group as % of the vehicle group. Schedule codes are those of the source, read here as Q, the interval in days (D) or hours (H), X, the number of doses. Some T/C values are followed by the survivors on the day toxicity was checked, most often the fifth; without a count, all were alive then. Some doses were run more than once; the results are listed from low to high. Marks such as (2×) stand for listed records that agree. Some doses have a count of surviving animals in place of a T/C: the source files T/C as zero there, which appears to mark a toxic dose or a test without result, not a measured value. Counts of survivors are from the toxicity check (mostly the fifth day) where no day follows; animals may have died later.
Tested on: BDF1 mice, Adenocarcinoma 755 s.c., tumor weight T/C
Experiment: NCI In Vivo Anticancer Drug Screen. Data for tumor model Adenocarcinoma 755 (subcutaneous) in B6D2F1 (BDF1) mice
Details: T/C endpoint: mean tumor weight, higher T/C = larger tumour; for T/C: evaluated on day 12
Protocol: The antitumor activity of compounds was measured in mice bearing transplantable tumors. Survival or tumor size were measured and the results are expressed as the measurement made in the treated group (T) divided by the measurement made in the vehicle treated control group (C). The tumor model used in this assay is Adenocarcinoma 755 (subcutaneous) in B6D2F1 (BDF1) mice

[1] = dose: 40.0 mg/kg/injection, schedule: Q01DX011 (ip), vehicle: methylcellulose (MC)
[2] = dose: 50.0 mg/kg/injection, schedule: Q01DX011 (ip), vehicle: methylcellulose (MC)

**Q.** What does the source list for `S=c1nc[nH]c2nc[nH]c12`?
**A.** T/C (dose: 0.04 mg/kg/injection, schedule: Q01DX011 (ip), vehicle: methylcellulose (MC)): 39, 58, 65, 72 [8 of 10 alive], 76, 76 [9 of 10 alive], 77, 83, 84 [8 of 10 alive], 93 [9 of 10 alive], 119 % of control [9 of 10 alive]; T/C (dose: 0.1 mg/kg/injection, schedule: Q01DX011 (ip), vehicle: carboxymethylcellulose (CMC)): 45, 63, 95, 103, 123 % of control; T/C (dose: 0.15 mg/kg/injection, schedule: Q01DX011 (ip), vehicle: methylcellulose (MC)): 30, 35, 40 [8 of 10 alive], 44 [8 of 10 alive], 48, 53 [9 of 10 alive], 58, 66 [8 of 10 alive], 71 [8 of 10 alive], 74 [9 of 10 alive], 81, 82 % of control; T/C (dose: 0.2 mg/kg/injection, schedule: Q01DX011 (ip), vehicle: methylcellulose (MC)): 11, 52, 55 [8 of 10 alive], 62, 69 [8 of 10 alive], 75 (2×), 94 [9 of 10 alive], 98 % of control [9 of 10 alive]; T/C (dose: 0.43 mg/kg/injection, schedule: Q01DX011 (ip), vehicle: carboxymethylcellulose (CMC)): 25 [8 of 10 alive], 33, 37, 52, 63, 79, 92 (2×), 99, 100 % of control [8 of 10 alive]; T/C (dose: 0.5 mg/kg/injection, schedule: Q01DX011 (ip), vehicle: carboxymethylcellulose (CMC)): 16 [9 of 10 alive], 32, 42, 47, 48, 51, 56 [9 of 10 alive], 60, 73, 77 % of control; T/C (dose: 0.6 mg/kg/injection, schedule: Q01DX011 (ip), vehicle: methylcellulose (MC)): 18 [9 of 10 alive], 27 [8 of 10 alive], 29, 33, 34, 42, 45 [9 of 10 alive], 47, 53, 57, 60, 61 % of control; T/C (dose: 0.8 mg/kg/injection, schedule: Q01DX011 (ip), vehicle: methylcellulose (MC)): 11 [9 of 10 alive], 17 [8 of 10 alive], 24 [9 of 10 alive], 25, 36, 39 [9 of 10 alive], 55, 57, 77 % of control; T/C (dose: 0.87 mg/kg/injection, schedule: Q01DX011 (ip), vehicle: carboxymethylcellulose (CMC)): 4 [8 of 10 alive], 6 [9 of 10 alive], 11 [8 of 10 alive], 15 [7 of 10 alive], 19 [9 of 10 alive], 23, 27, 35, 37, 48 % of control; T/C (dose: 0.87 mg/kg/injection, schedule: Q01DX011 (oral), vehicle: carboxymethylcellulose (CMC)): 48 [7 of 9 alive], 62, 64, 79, 83 (2×), 85 [9 of 10 alive], 95, 111, 138 % of control; T/C (dose: 1.0 mg/kg/injection, schedule: Q01DX011 (ip), vehicle: carboxymethylcellulose (CMC)): 6, 12, 25, 28 [9 of 10 alive], 30, 33, 34, 55 % of control; T/C (dose: 1.7 mg/kg/injection, schedule: Q01DX011 (ip), vehicle: carboxymethylcellulose (CMC)): 1 [9 of 10 alive], 6, 7 (3×), 12 (2×), 13, 19, 27 % of control; T/C (dose: 1.7 mg/kg/injection, schedule: Q01DX011 (oral), vehicle: carboxymethylcellulose (CMC)): 24 [8 of 10 alive], 39, 43, 46 (2×), 65, 73, 80, 88, 400 % of control [9 of 10 alive]; T/C (dose: 2.5 mg/kg/injection, schedule: Q01DX011 (ip), vehicle: carboxymethylcellulose (CMC)): 1, 2 (2×), 3, 7 % of control; T/C (dose: 2.5 mg/kg/injection, schedule: Q01DX011 (ip), vehicle: methylcellulose (MC)): 2, 2 [9 of 10 alive], 4 [7 of 10 alive], 5, 5 [9 of 10 alive], 6 [9 of 10 alive] (2×), 7 (3×), 9 [9 of 10 alive], 11 [9 of 10 alive], 12 [9 of 10 alive], 14 [9 of 10 alive], 15 (4×), 18 (2×), 21 % of control [8 of 10 alive]; T/C (dose: 3.5 mg/kg/injection, schedule: Q01DX011 (ip), vehicle: carboxymethylcellulose (CMC)): 1 (3×), 2, 3 (2×), 3 [9 of 10 alive] (2×), 4 (4×), 5, 5 [9 of 10 alive], 6, 6 [9 of 10 alive], 8 (2×), 8 [8 of 10 alive], 23 % of control; T/C (dose: 3.5 mg/kg/injection, schedule: Q01DX011 (oral), vehicle: carboxymethylcellulose (CMC)): 3, 12, 13, 14, 15, 17 [8 of 10 alive], 20, 20 [9 of 10 alive], 24, 58 % of control; T/C (dose: 5.0 mg/kg/injection, schedule: Q01DX011 (ip), vehicle: carboxymethylcellulose (CMC)): 1 (3×), 4, 10 % of control; T/C (dose: 7.0 mg/kg/injection, schedule: Q01DX011 (ip), vehicle: carboxymethylcellulose (CMC)): 1, 2 (2×), 3 % of control [9 of 10 alive]; T/C (dose: 7.0 mg/kg/injection, schedule: Q01DX011 (oral), vehicle: carboxymethylcellulose (CMC)): 2, 3, 4, 5, 5 [9 of 10 alive], 6 (2×), 7 (2×), 8 [7 of 9 alive], 9, 11, 12, 15, 19 % of control [8 of 10 alive]; T/C (dose: 10.0 mg/kg/injection, schedule: Q01DX011 (ip), vehicle: carboxymethylcellulose (CMC)): 1 (2×), 4, 7 % of control; T/C (dose: 10.0 mg/kg/injection, schedule: Q01DX011 (ip), vehicle: methylcellulose (MC)): 1 [9 of 10 alive], 2, 2 [8 of 10 alive], 3 (4×), 3 [9 of 10 alive] (2×), 4 (2×), 4 [7 of 10 alive], 5, 5 [9 of 10 alive], 6 (2×), 6 [9 of 10 alive], 8, 9, 12, 13 % of control; T/C (dose: 14.0 mg/kg/injection, schedule: Q01DX011 (ip), vehicle: carboxymethylcellulose (CMC)): 1 [9 of 10 alive], 2 (2×), 2 [9 of 10 alive], 3 % of control; T/C (dose: 14.0 mg/kg/injection, schedule: Q01DX011 (oral), vehicle: carboxymethylcellulose (CMC)): 1 (2×), 2, 3 % of control; T/C (dose: 20.0 mg/kg/injection, schedule: Q01DX011 (ip), vehicle: carboxymethylcellulose (CMC)): 1 [7 of 10 alive], 2, 4, 5 % of control; survivor count (dose: 21.4 mg/kg/injection, schedule: Q01DX011 (ip), vehicle: carboxymethylcellulose (CMC)): 6 of 10; T/C (dose: 28.0 mg/kg/injection, schedule: Q01DX011 (ip), vehicle: carboxymethylcellulose (CMC)): 1, 2 (3×), 4 % of control; T/C (dose: 28.0 mg/kg/injection, schedule: Q01DX011 (oral), vehicle: carboxymethylcellulose (CMC)): 1 (2×) and 2 % of control (3×); survivor count (dose: 30.0 mg/kg/injection, schedule: Q01DX011 (ip), vehicle: carboxymethylcellulose (CMC)): 0 of 10; T/C [1]: 1 [7 of 10 alive], 1 [9 of 10 alive], 2 [7 of 10 alive] (2×), 2 [8 of 10 alive], 2 [9 of 10 alive], 3 [7 of 10 alive] (2×), 3 [9 of 10 alive] (2×), 4 [7 of 10 alive], 4 [9 of 10 alive] (2×), 5 [8 of 10 alive] (2×), 6 % of control [8 of 10 alive] (2×); survivor count [1]: 5 of 10 and 6 of 10; T/C [2]: 2 [9 of 10 alive], 3 [7 of 10 alive], 4 [7 of 10 alive], 5 % of control [7 of 10 alive]; survivor count [2]: 2 of 10, 3 of 10, 4 of 10, 5 of 10, 6 of 10; T/C (dose: 56.0 mg/kg/injection, schedule: Q01DX011 (oral), vehicle: carboxymethylcellulose (CMC)): 1, 2 [8 of 10 alive], 3 % of control [9 of 10 alive] (2×); survivor count (dose: 120.0 mg/kg/injection, schedule: Q01DX011 (ip), vehicle: alkali diluted with saline): 2 of 10; survivor count (dose: 120.0 mg/kg/injection, schedule: Q01DX011 (oral), vehicle: alkali diluted with saline): 6 of 10; survivor count (dose: 250.0 mg/kg/injection, schedule: Q01DX011 (ip), vehicle: saline): 2 of 10; survivor count (dose: 320.0 mg/kg/injection, schedule: Q01DX001 (ip), vehicle: alkali diluted with saline): 2 of 10; survivor count (dose: 320.0 mg/kg/injection, schedule: Q03DX004 (ip), vehicle: alkali diluted with saline): 3 of 10 and 6 of 10; survivor count (dose: 320.0 mg/kg/injection, schedule: Q07DX002 (ip), vehicle: alkali diluted with saline): 6 of 10; survivor count (dose: 480.0 mg/kg/injection, schedule: Q01DX001 (ip), vehicle: alkali diluted with saline): 2 of 10; survivor count (dose: 640.0 mg/kg/injection, schedule: Q03DX004 (oral), vehicle: alkali diluted with saline): 5 of 10; survivor count (dose: 960.0 mg/kg/injection, schedule: Q01DX001 (oral), vehicle: alkali diluted with saline): 1 of 10; survivor count (dose: 960.0 mg/kg/injection, schedule: Q07DX002 (oral), vehicle: alkali diluted with saline): 3 of 10; survivor count (dose: 1000.0 mg/kg/injection, schedule: Q01DX011 (ip), vehicle: saline): 0 of 10

**Q.** Which survivor count (dose: 4.6 mg/kg/injection, schedule: Q01DX011 (ip), vehicle: methylcellulose (MC)) does the source give for `Cn1c(N)nc2nc[nH]c2c1=O` here?
**A.** 6 of 10

**Q.** What about the survivor count (dose: 37.5 mg/kg/injection, schedule: Q01DX011 (ip), vehicle: methylcellulose (MC)) of the same molecule?
**A.** 4 of 10

**Q.** For `CSc1nc(N)c(NC=O)c(=O)n1C`, which survivor count (dose: 225.0 mg/kg/injection, schedule: Q01DX011 (ip), vehicle: saline) is on record?
**A.** 6 of 10

**Q.** Which survivor count (dose: 75.0 mg/kg/injection, schedule: Q01DX011 (ip), vehicle: carboxymethylcellulose (CMC)) does the source give for `CCCNS(=O)(=O)c1ncnc2nc[nH]c12` here?
**A.** 2 of 10

**Q.** How did the survivor count (dose: 400.0 mg/kg/injection, schedule: Q01DX011 (ip), vehicle: saline) turn out when `Oc1ccc2ccccc2c1N=Nc1ccccc1` was run?
**A.** 2 of 10

Source: PubChem BioAssay AID180 (DTP/NCI, 2004)
